Laboratory results published in PubChem BioAssay AID248 (DTP/NCI, 2004).
The list does not hold the whole screen: it gathers tests that were run many times, whatever their T/C, doses with no T/C, and many T/C values between a quarter and a half above the control. Other doses and runs of a compound stand elsewhere. T/C: endpoint of the treated group in % of that of the vehicle group. Some doses have a count of surviving animals in place of a T/C: the source files T/C as zero there, which appears to mark a toxic dose or a test without result, not a measured value. Some doses without a T/C left all or most animals alive at the check, yet need not have been tolerated: the source hardly ever lists a survival T/C far under the control, and the zero likely stands for such cases as well. Survivors were counted at the toxicity check, usually on the fifth day, unless a day is given; later deaths do not show. Schedules are NCI's codes, read here as Q, the interval in days (D) or hours (H), X, the number of doses. Some schedules carry Z or #; the key to these is not given. For survival time, the PubChem record calls one and a half times the control and up active, and a quarter to a half above the control has no call in these data; cut-offs in other NCI protocols can differ. Additions like (4×) stand for listed records that agree. Some entries were tested several times; the values are given in rising order. Some T/C values are followed by the survivors on the day toxicity was checked, most often the fifth; where none is given, no animal had died by that day.

Tested on: L1210 leukemia ip in BDF1 mice, survival T/C
Assay: NCI In Vivo Anticancer Drug Screen. Data for tumor model L1210 Leukemia (intraperitoneal) in B6D2F1 (BDF1) mice
Details: T/C endpoint: mean survival time, higher T/C = longer survival
[1] = dose: 0.9 mg/kg/injection, schedule: Q03HX008 (ip), vehicle: carboxymethylcellulose (CMC)
[2] = dose: 2.0 mg/kg/injection, schedule: Q03HX024 (ip), vehicle: carboxymethylcellulose (CMC)
[3] = dose: 8.0 mg/kg/injection, schedule: Q03HX024 (ip), vehicle: carboxymethylcellulose (CMC)

## N=C(N)SCc1c2ccccc2c(CSC(=N)N)c2ccccc12
dose: 0.1 mg/kg/injection, schedule: Q01DX Z (ip), vehicle: carboxymethylcellulose (CMC)
  T/C: 128 % of control
dose: 0.4 mg/kg/injection, schedule: Q01DX Z (ip), vehicle: carboxymethylcellulose (CMC)
  T/C: 126 % of control
dose: 0.45 mg/kg/injection, schedule: Q01DX Z (ip), vehicle: saline
  T/C: 135 % of control
dose: 0.5 mg/kg/injection, schedule: Q03HX024 (ip), vehicle: carboxymethylcellulose (CMC)
  survivor count: 2 of 10
dose: 0.78 mg/kg/injection, schedule: Q07DX003 (ip), vehicle: saline
  T/C: 130 % of control
dose: 0.8 mg/kg/injection, schedule: Q01DX Z (ip), vehicle: carboxymethylcellulose (CMC)
  T/C: 125 and 126 % of control
[1]
  T/C: 138 % of control
  survivor count: 4 of 10
dose: 0.9 mg/kg/injection, schedule: Q03HX008 (ip), vehicle: other
  T/C: 134 % of control (2×)
dose: 1.0 mg/kg/injection, schedule: Q01DX Z (ip), vehicle: saline
  T/C: 141 % of control
dose: 1.2 mg/kg/injection, schedule: Q03DX004 (ip), vehicle: saline
  T/C: 136 % of control
dose: 1.25 mg/kg/injection, schedule: Q01DX Z (ip), vehicle: carboxymethylcellulose (CMC)
  T/C: 125 % of control
dose: 1.25 mg/kg/injection, schedule: Q#A X Z (ip), vehicle: carboxymethylcellulose (CMC)
  T/C: 128 % of control
dose: 1.5 mg/kg/injection, schedule: Q01DX Z (ip), vehicle: carboxymethylcellulose (CMC)
  T/C: 125 and 134 % of control
dose: 1.56 mg/kg/injection, schedule: Q07DX003 (ip), vehicle: saline
  T/C: 137 % of control
dose: 1.8 mg/kg/injection, schedule: Q01DX Z (ip), vehicle: saline
  T/C: 144 % of control
[2]
  T/C: 126 % of control
  survivor count: 6 of 10
dose: 2.0 mg/kg/injection, schedule: Q03HX024 (ip), vehicle: other
  T/C: 128 and 131 % of control
dose: 2.0 mg/kg/injection, schedule: Q## X008 (ip), vehicle: carboxymethylcellulose (CMC)
  survivor count: 2 of 10
dose: 2.3 mg/kg/injection, schedule: Q01DX Z (ip), vehicle: saline
  T/C: 126 and 130 % of control
dose: 2.4 mg/kg/injection, schedule: Q03DX004 (ip), vehicle: saline
  T/C: 133 % of control
dose: 2.5 mg/kg/injection, schedule: Q01DX001 (ip), vehicle: carboxymethylcellulose (CMC)
  T/C: 139 % of control
dose: 2.5 mg/kg/injection, schedule: Q01DX Z (im), vehicle: carboxymethylcellulose (CMC)
  T/C: 141 % of control
dose: 2.5 mg/kg/injection, schedule: Q01DX Z (ip), vehicle: carboxymethylcellulose (CMC)
  T/C: 125 % of control
dose: 2.5 mg/kg/injection, schedule: Q01DX Z (sc), vehicle: carboxymethylcellulose (CMC)
  T/C: 129 % of control
dose: 2.5 mg/kg/injection, schedule: Q#A X Z (ip), vehicle: carboxymethylcellulose (CMC)
  T/C: 133 % of control (2×)
dose: 2.7 mg/kg/injection, schedule: Q03HX008 (ip), vehicle: carboxymethylcellulose (CMC)
  survivor count: 5 of 10
dose: 2.7 mg/kg/injection, schedule: Q03HX008 (ip), vehicle: other
  T/C: 132 % of control
dose: 3.0 mg/kg/injection, schedule: Q01DX Z (ip), vehicle: carboxymethylcellulose (CMC)
  T/C: 140 % of control
dose: 3.1 mg/kg/injection, schedule: Q03HX024 (ip), vehicle: carboxymethylcellulose (CMC)
  T/C: 134 % of control
dose: 3.1 mg/kg/injection, schedule: Q03HX040 (ip), vehicle: carboxymethylcellulose (CMC)
  T/C: 129 % of control [7 of 8 alive]
dose: 3.13 mg/kg/injection, schedule: Q07DX003 (ip), vehicle: saline
  T/C: 131 % of control
dose: 3.5 mg/kg/injection, schedule: Q01DX Z (ip), vehicle: saline
  T/C: 145 % of control
dose: 4.0 mg/kg/injection, schedule: Q## X003 (ip), vehicle: carboxymethylcellulose (CMC)
  T/C: 132 % of control
dose: 4.3 mg/kg/injection, schedule: Q01DX001 (ip), vehicle: carboxymethylcellulose (CMC)
  T/C: 138 % of control
dose: 4.7 mg/kg/injection, schedule: Q03DX004 (ip), vehicle: saline
  T/C: 127 % of control
dose: 4.7 mg/kg/injection, schedule: Q03DX Z (ip), vehicle: saline
  T/C: 141 % of control
dose: 5.0 mg/kg/injection, schedule: Q01DX Z (im), vehicle: carboxymethylcellulose (CMC)
  T/C: 135 % of control
dose: 5.0 mg/kg/injection, schedule: Q01DX Z (ip), vehicle: carboxymethylcellulose (CMC)
  T/C: 131 % of control
dose: 5.0 mg/kg/injection, schedule: Q01DX Z (sc), vehicle: carboxymethylcellulose (CMC)
  T/C: 140 % of control
dose: 5.0 mg/kg/injection, schedule: Q#A X Z (ip), vehicle: carboxymethylcellulose (CMC)
  T/C: 128 and 146 % of control
dose: 5.3 mg/kg/injection, schedule: Q01DX Z (ip), vehicle: saline
  T/C: 149 % of control
dose: 6.0 mg/kg/injection, schedule: Q01DX009 (ip), vehicle: saline
  T/C: 127 and 135 % of control
dose: 6.0 mg/kg/injection, schedule: Q06HX068 (ip), vehicle: carboxymethylcellulose (CMC)
  T/C: 131 % of control
dose: 6.2 mg/kg/injection, schedule: Q03HX024 (ip), vehicle: carboxymethylcellulose (CMC)
  T/C: 130 % of control
dose: 6.2 mg/kg/injection, schedule: Q03HX040 (ip), vehicle: carboxymethylcellulose (CMC)
  T/C: 144 % of control
dose: 6.25 mg/kg/injection, schedule: Q07DX Z (ip), vehicle: saline
  T/C: 138 % of control
dose: 7.0 mg/kg/injection, schedule: Q03DX006 (ip), vehicle: carboxymethylcellulose (CMC)
  T/C: 130 % of control
dose: 7.0 mg/kg/injection, schedule: Q## X008 (ip), vehicle: carboxymethylcellulose (CMC)
  survivor count: 1 of 10
dose: 8.0 mg/kg/injection, schedule: Q01DX Z (ip), vehicle: saline
  T/C: 137 % of control
[3]
  T/C: 133 % of control
  survivor count: 3 of 10
dose: 8.0 mg/kg/injection, schedule: Q08DX002 (ip), vehicle: clinical formulation
  T/C: 136 and 140 % of control
dose: 8.1 mg/kg/injection, schedule: Q03HX008 (ip), vehicle: carboxymethylcellulose (CMC)
  survivor count: 6 of 10
dose: 8.1 mg/kg/injection, schedule: Q03HX008 (ip), vehicle: other
  T/C: 139 % of control
dose: 8.5 mg/kg/injection, schedule: Q01DX001 (ip), vehicle: carboxymethylcellulose (CMC)
  T/C: 141 % of control
dose: 8.5 mg/kg/injection, schedule: Q07DX003 (ip), vehicle: carboxymethylcellulose (CMC)
  T/C: 134 % of control
dose: 9.4 mg/kg/injection, schedule: Q03DX Z (ip), vehicle: saline
  T/C: 132 % of control
dose: 10.0 mg/kg/injection, schedule: Q01DX Z (im), vehicle: carboxymethylcellulose (CMC)
  T/C: 132 % of control
dose: 10.0 mg/kg/injection, schedule: Q#A X Z (ip), vehicle: carboxymethylcellulose (CMC)
  T/C: 135 % of control
dose: 12.0 mg/kg/injection, schedule: Q08DX002 (ip), vehicle: clinical formulation
  T/C: 142 % of control
dose: 12.0 mg/kg/injection, schedule: Q08DX002 (ip), vehicle: saline
  T/C: 136 % of control
dose: 12.5 mg/kg/injection, schedule: Q01DX001 (ip), vehicle: carboxymethylcellulose (CMC)
  T/C: 129 % of control
dose: 12.5 mg/kg/injection, schedule: Q01DX Z (ip), vehicle: carboxymethylcellulose (CMC)
  T/C: 132 % of control [5 of 6 alive]
dose: 12.5 mg/kg/injection, schedule: Q03HX008 (ip), vehicle: saline
  T/C: 130 % of control
dose: 12.5 mg/kg/injection, schedule: Q03HX024 (ip), vehicle: carboxymethylcellulose (CMC)
  T/C: 136 % of control
dose: 12.5 mg/kg/injection, schedule: Q03HX040 (ip), vehicle: carboxymethylcellulose (CMC)
  T/C: 136 % of control
dose: 15.0 mg/kg/injection, schedule: Q03DX006 (ip), vehicle: carboxymethylcellulose (CMC)
  T/C: 127 and 141 % of control
dose: 16.0 mg/kg/injection, schedule: Q03HX024 (ip), vehicle: carboxymethylcellulose (CMC)
  T/C: 131 % of control
dose: 16.0 mg/kg/injection, schedule: Q03HX024 (ip), vehicle: other
  T/C: 145 % of control
dose: 16.0 mg/kg/injection, schedule: Q## X003 (ip), vehicle: carboxymethylcellulose (CMC)
  T/C: 146 % of control
dose: 17.0 mg/kg/injection, schedule: Q01DX001 (ip), vehicle: carboxymethylcellulose (CMC)
  T/C: 133 % of control
dose: 17.0 mg/kg/injection, schedule: Q07DX003 (ip), vehicle: carboxymethylcellulose (CMC)
  T/C: 128 and 132 % of control
dose: 18.0 mg/kg/injection, schedule: Q08DX002 (ip), vehicle: clinical formulation
  T/C: 133 % of control
dose: 18.0 mg/kg/injection, schedule: Q08DX002 (ip), vehicle: saline
  T/C: 128 and 137 % of control
dose: 18.8 mg/kg/injection, schedule: Q03DX Z (ip), vehicle: saline
  T/C: 143 % of control
dose: 20.0 mg/kg/injection, schedule: Q01DX006 (iv), vehicle: saline
  T/C: 125 % of control
dose: 20.0 mg/kg/injection, schedule: Q01DX Z (im), vehicle: carboxymethylcellulose (CMC)
  T/C: 138 % of control
dose: 22.0 mg/kg/injection, schedule: Q## X008 (ip), vehicle: carboxymethylcellulose (CMC)
  survivor count: 0 of 10
dose: 25.0 mg/kg/injection, schedule: Q01DX005 (ip), vehicle: carboxymethylcellulose (CMC)
  T/C: 126 % of control
dose: 25.0 mg/kg/injection, schedule: Q01DX009 (ip), vehicle: carboxymethylcellulose (CMC)
  T/C: 147 % of control
dose: 25.0 mg/kg/injection, schedule: Q01DX009 (ip), vehicle: clinical formulation
  survivor count: 4 of 6
dose: 25.0 mg/kg/injection, schedule: Q01DX Z (ip), vehicle: carboxymethylcellulose (CMC)
  T/C: 129 % of control
dose: 25.0 mg/kg/injection, schedule: Q03HX008 (ip), vehicle: carboxymethylcellulose (CMC)
  T/C: 139 % of control
dose: 25.0 mg/kg/injection, schedule: Q03HX024 (ip), vehicle: carboxymethylcellulose (CMC)
  T/C: 147 % of control
dose: 25.0 mg/kg/injection, schedule: Q07DX Z (ip), vehicle: saline
  T/C: 144 % of control
dose: 26.0 mg/kg/injection, schedule: Q08DX002 (ip), vehicle: clinical formulation
  T/C: 149 % of control
dose: 26.0 mg/kg/injection, schedule: Q08DX002 (ip), vehicle: saline
  T/C: 147 and 148 % of control
dose: 27.0 mg/kg/injection, schedule: Q01DX Z (ip), vehicle: saline
  T/C: 127 % of control
dose: 30.0 mg/kg/injection, schedule: Q03DX006 (ip), vehicle: carboxymethylcellulose (CMC)
  T/C: 138 % of control (2×)
dose: 32.0 mg/kg/injection, schedule: Q03HX024 (ip), vehicle: carboxymethylcellulose (CMC)
  survivor count: 4 of 10
dose: 32.0 mg/kg/injection, schedule: Q03HX024 (ip), vehicle: other
  survivor count: 10 of 10
dose: 35.0 mg/kg/injection, schedule: Q01DX001 (ip), vehicle: carboxymethylcellulose (CMC)
  T/C: 138 % of control
dose: 35.0 mg/kg/injection, schedule: Q07DX003 (ip), vehicle: carboxymethylcellulose (CMC)
  T/C: 133 and 134 % of control
dose: 37.5 mg/kg/injection, schedule: Q03DX Z (ip), vehicle: saline
  T/C: 139 and 143 % of control
